Measurements from paper PMC7326921.

Chains of the proteins cited; added tags and fusions are not shown. Lines headed by an entry give the natural chain unless they say otherwise; changes in a name come on top.
UniProt Q8IZP0: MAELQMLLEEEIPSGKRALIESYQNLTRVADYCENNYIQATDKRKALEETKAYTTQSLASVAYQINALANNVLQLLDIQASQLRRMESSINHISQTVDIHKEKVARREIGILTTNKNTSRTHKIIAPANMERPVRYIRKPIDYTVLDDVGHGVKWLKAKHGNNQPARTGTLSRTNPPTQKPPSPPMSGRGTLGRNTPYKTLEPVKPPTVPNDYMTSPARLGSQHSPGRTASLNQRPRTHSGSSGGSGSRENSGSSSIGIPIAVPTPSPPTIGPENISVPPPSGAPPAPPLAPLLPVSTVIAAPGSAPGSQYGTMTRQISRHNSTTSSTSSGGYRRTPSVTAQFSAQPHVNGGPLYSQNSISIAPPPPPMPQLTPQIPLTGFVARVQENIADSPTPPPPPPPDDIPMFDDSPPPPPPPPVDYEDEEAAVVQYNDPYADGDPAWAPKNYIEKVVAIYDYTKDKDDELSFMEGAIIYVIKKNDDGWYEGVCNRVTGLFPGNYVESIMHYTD
UniProt P07737: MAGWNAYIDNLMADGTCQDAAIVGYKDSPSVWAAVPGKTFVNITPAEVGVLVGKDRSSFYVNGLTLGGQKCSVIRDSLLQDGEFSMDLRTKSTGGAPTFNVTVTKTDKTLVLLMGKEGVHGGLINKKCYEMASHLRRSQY

Target: EYFP-tagged Abi1 mutant lacking proline-rich domain (UniProt Q8IZP0)
Experiment: co-IP; EYFP-tagged FL Abi1 or ∆PP cotransfected into cells with Flag-Pfn-1; cell extracts immunoprecipitated with GFP antibody and blotted with GFP antibody and Flag antibody

binding: no binding
Substance: Flag-Pfn-1 (profilin-1) (from UniProt P07737 1-140)

Results are given in words; binding and its absence hold for the method and conditions named. In cells and extracts the contact can be indirect.
